{"source": "PubChem BioAssay AID652259 | Drosophila RNAi Screening Center | 2013", "screen": "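Genome-wide hunt for genes that control Wingless pathway activity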 (primary screen)", "cell system": "Drosophila clone 8 imaginal disc epithelial cells", "reagent": "long dsRNA against Drosophila genes", "challenge": "pathway stimulated by co-transfected Wingless expression plasmid", "measurement": "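Firefly luciferase from a tcf-site Wingless reporter, measured alongside co-transfected Renilla luciferase that tracks transfection; pathway stimulated by a Wingless plasmid; the firefly-to-Renilla ratio is not deposited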", "direction": "firefly reporter light: higher = more Wg reporter light, before normalisation; Renilla control light: higher = more transfected or surviving cells", "active means": "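Strong candidates differ from their plate mean by at least two out of four per-plate statistical tests; weak candidates meet just one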", "calls": "active = candidate regulator (raises or lowers reporter); inactive = not a candidate", "note": "The screen tested about 22,000 reagents; shown is an unselected part of those with a known target gene and a result. Of all reagents, 233 (1.1%) are marked active. 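Light values are raw, unnormalised plate reads; the ratio scores behind the reporter calls were not deposited.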 The record does not give: the amount of reagent, the time to read-out, the dose of the treatment."}
{"Target gene": "GstD2 (Glutathione S transferase D2)", "PubChem SID": "SID104196476", "firefly reporter light, replicate 1": 16736, "Renilla control light, replicate 1": 4586, "Outcome": "inactive"}
{"Target gene": "Polr2J (RNA polymerase II subunit J)", "PubChem SID": "SID104182787", "firefly reporter light, replicate 1": 2737, "firefly reporter light, replicate 2": 8391, "Renilla control light, replicate 1": 1392, "Renilla control light, replicate 2": 3943, "Outcome": "inactive"}
{"Target gene": "sigmar (salivary glands marred)", "PubChem SID": "SID104184241", "firefly reporter light, replicate 1": 13524, "Renilla control light, replicate 1": 3639, "Outcome": "inactive"}
{"Target gene": "Ir51b (Ionotropic receptor 51b)", "PubChem SID": "SID104185332", "firefly reporter light, replicate 1": 19335, "Renilla control light, replicate 1": 16004, "Outcome": "inactive"}
{"Target gene": "Scgbeta (Sarcoglycan beta)", "PubChem SID": "SID104195646", "firefly reporter light, replicate 1": 14059, "Renilla control light, replicate 1": 2449, "Outcome": "inactive"}
{"Target gene": "coil (coilin)", "PubChem SID": "SID104187034", "firefly reporter light, replicate 1": 4566, "Renilla control light, replicate 1": 874, "Outcome": "inactive"}
{"Target gene": "siz (schizo)", "PubChem SID": "SID104191414", "firefly reporter light, replicate 1": 13093, "Renilla control light, replicate 1": 4057, "Outcome": "inactive"}
{"Target gene": "siz (schizo)", "PubChem SID": "SID104191481", "firefly reporter light, replicate 1": 21040, "Renilla control light, replicate 1": 3755, "Outcome": "inactive"}
{"Target gene": "siz (schizo)", "PubChem SID": "SID104191482", "firefly reporter light, replicate 1": 19147, "Renilla control light, replicate 1": 5398, "Outcome": "inactive"}
{"Target gene": "CG17777", "PubChem SID": "SID104197929", "firefly reporter light, replicate 1": 21856, "Renilla control light, replicate 1": 15707, "Outcome": "inactive"}
{"Target gene": "Cyp4d21 (Cytochrome P450 4d21)", "PubChem SID": "SID104183097", "firefly reporter light, replicate 1": 7613, "Renilla control light, replicate 1": 3314, "Outcome": "inactive"}
{"Target gene": "CG31974", "PubChem SID": "SID104180314", "firefly reporter light, replicate 1": 2890, "firefly reporter light, replicate 2": 6022, "Renilla control light, replicate 1": 1047, "Renilla control light, replicate 2": 2128, "Outcome": "inactive"}
